Data on one substance can be found in paper PMC12541625.

Chains of the proteins cited; added tags and fusions are not shown.
UniProt B2KF05: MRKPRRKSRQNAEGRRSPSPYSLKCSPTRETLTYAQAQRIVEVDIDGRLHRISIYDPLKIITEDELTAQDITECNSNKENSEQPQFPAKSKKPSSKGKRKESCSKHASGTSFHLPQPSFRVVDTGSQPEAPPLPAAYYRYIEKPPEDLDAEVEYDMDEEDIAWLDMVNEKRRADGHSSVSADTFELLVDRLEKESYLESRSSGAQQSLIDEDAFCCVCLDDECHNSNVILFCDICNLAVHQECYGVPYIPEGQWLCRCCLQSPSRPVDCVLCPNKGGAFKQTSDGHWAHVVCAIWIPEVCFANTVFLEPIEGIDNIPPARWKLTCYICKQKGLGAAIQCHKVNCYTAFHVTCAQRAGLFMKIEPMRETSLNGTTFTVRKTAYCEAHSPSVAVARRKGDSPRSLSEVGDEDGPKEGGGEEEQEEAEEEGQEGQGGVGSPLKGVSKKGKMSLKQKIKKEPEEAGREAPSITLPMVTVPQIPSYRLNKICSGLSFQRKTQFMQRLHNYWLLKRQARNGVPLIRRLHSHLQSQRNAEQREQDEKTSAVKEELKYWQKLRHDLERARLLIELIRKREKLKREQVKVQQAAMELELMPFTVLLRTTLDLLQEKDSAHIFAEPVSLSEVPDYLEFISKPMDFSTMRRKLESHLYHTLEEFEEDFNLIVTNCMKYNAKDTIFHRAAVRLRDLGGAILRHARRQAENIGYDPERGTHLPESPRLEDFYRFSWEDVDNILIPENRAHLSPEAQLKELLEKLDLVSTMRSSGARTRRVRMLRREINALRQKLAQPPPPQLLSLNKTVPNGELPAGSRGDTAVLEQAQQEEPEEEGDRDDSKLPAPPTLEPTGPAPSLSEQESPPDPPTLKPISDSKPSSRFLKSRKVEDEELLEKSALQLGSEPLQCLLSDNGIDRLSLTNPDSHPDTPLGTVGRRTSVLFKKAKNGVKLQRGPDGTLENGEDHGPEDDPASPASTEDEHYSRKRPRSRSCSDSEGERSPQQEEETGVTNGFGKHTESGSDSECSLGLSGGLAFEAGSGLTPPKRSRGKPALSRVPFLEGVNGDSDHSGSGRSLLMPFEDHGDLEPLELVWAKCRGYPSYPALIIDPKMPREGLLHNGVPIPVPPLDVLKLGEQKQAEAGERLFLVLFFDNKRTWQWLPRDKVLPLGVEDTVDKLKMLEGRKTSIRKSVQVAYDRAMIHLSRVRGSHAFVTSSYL
UniProt Q5SVQ0: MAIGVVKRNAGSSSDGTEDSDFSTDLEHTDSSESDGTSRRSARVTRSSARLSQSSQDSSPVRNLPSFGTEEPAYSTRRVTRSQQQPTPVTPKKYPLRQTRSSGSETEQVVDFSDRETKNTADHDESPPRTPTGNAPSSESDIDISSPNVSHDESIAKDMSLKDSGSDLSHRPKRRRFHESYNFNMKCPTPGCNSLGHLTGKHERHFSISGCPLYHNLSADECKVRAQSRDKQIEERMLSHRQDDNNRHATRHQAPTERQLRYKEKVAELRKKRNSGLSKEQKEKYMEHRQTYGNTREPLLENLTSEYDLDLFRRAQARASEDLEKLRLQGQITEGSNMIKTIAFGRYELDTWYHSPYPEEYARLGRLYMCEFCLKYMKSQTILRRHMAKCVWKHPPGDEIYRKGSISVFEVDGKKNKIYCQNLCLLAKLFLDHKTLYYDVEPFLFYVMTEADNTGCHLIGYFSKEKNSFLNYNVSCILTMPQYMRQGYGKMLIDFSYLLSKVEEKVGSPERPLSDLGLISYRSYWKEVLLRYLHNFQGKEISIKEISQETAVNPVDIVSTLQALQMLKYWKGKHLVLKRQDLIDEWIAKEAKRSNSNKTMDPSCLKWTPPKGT

Results are given in words; binding and its absence hold for the method and conditions named. Binding seen in cells or lysates may run through a third protein. Here binding means that the protein was enriched with, or labelled near, the bait; the list need not be complete.

This assay concerns the target Flag-tagged full-length BRPF3 (UniProt B2KF05). The experiment in a line: affinity purification with mass spectrometry; Co-IP / IP of BRPF3 from CFs followed by 4D-FastDIA LC-MS/MS (mass spectrometric) analysis.

With “KAT7 (in mouse cardiac fibroblasts and mouse heart tissue) (from UniProt Q5SVQ0 1-613) (enzyme)”, the binding entry is recorded as “binds”.
